The test deals with T1, FOXQ1 (forkhead box transcription factor FOXQ1) (human (endogenous in MDA-MB-231-RR)) (UniProt Q9C009).
T1 sequence: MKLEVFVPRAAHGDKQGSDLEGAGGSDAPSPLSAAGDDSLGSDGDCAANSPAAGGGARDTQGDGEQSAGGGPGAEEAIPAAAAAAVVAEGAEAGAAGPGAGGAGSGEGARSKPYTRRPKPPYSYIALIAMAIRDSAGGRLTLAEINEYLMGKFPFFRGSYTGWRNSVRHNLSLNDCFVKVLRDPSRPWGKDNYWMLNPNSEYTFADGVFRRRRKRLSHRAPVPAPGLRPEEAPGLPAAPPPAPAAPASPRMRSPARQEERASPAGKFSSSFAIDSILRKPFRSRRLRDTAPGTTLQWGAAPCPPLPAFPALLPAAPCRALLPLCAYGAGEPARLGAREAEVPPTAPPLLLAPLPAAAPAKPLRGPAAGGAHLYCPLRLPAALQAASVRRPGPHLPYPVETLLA
The experiment in a line: affinity purification with mass spectrometry; MDA-MB-231-RR cells lysed in RIPA buffer; anti-FOXQ1 antibody or control IgG overnight at 4 °C, protein A/G agarose beads; SDS-PAGE, silver stain, in-gel trypsin digestion, LC-MS/MS.

These are yes or no findings as the source states them, for the method shown. In cells and extracts the contact can be indirect. Here binding means that the protein was enriched with, or labelled near, the bait; the list need not be complete.

As for RAPH1 (from UniProt Q70E73-9), the binding result is on record as “binds”.

The record behind these values is paper PMC10703867.
